Measurements from paper doi:10.1101/2025.01.25.634884.

Chains of the proteins cited; added tags and fusions are not shown. Residues count along the entry.
UniProt Q69YL0: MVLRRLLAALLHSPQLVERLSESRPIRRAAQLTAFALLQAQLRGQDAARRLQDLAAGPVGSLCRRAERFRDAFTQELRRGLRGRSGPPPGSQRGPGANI
UniProt P25705, residues 44-553: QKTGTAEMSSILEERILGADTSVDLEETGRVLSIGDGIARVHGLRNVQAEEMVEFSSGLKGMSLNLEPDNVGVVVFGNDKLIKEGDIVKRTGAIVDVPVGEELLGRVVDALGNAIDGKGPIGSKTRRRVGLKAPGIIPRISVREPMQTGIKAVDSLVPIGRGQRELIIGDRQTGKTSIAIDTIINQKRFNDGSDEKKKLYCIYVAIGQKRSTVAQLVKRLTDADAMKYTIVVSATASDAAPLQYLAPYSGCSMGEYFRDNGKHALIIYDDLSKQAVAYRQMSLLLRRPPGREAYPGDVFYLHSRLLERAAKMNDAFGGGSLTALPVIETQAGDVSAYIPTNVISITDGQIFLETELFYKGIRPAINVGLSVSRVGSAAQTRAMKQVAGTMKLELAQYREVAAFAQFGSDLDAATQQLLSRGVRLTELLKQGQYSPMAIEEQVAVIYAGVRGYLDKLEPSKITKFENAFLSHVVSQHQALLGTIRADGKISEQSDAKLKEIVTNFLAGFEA
UniProt P21796: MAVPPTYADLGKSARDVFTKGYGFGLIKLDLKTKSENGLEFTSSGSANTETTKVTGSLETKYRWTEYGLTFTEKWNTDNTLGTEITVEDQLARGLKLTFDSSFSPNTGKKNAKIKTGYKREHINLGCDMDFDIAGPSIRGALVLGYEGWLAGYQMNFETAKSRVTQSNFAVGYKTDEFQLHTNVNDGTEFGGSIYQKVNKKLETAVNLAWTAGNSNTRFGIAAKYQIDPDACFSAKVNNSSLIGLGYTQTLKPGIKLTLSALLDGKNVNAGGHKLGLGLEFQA

B1: SLC25A6 (protein, UniProt P12236 1-298)
chain: MTEQAISFAKDFLAGGIAAAISKTAVAPIERVKLLLQVQHASKQIAADKQYKGIVDCIVRIPKEQGVLSFWRGNLANVIRYFPTQALNFAFKDKYKQIFLGGVDKHTQFWRYFAGNLASGGAAGATSLCFVYPLDFARTRLAADVGKSGTEREFRGLGDCLVKITKSDGIRGLYQGFSVSVQGIIIYRAAYFGVYDTAKGMLPDPKNTHIVVSWMIAQTVTAVAGVVSYPFDTVRRRMMMQSGRKGADIMYTGTVDCWRKIFRDEGGKAFFKGAWSNVLRGMGGAFVLVLYDELKKVI
B2: TIMM9 (protein, UniProt Q9Y5J7 1-89)
chain: MAAQIPESDQIKQFKEFLGTYNKLTETCFLDCVKDFTTREVKPEETTCSEHCLQKYLKMTQRISMRFQEYHIQQNEALAAKAGLLGQPR
B3: TIMM10 (protein, UniProt P62072 1-90)
chain: MDPLRAQQLAAELEVEMMADMYNRMTSACHRKCVPPHYKEAELSKGESVCLDRCVSKYLDIHERMGKKLTELSMQDEELMKRVQQSSGPA
B4: TIMM10B (protein, UniProt Q9Y5J6 1-103)
chain: MERQQQQQQQLRNLRDFLLVYNRMTELCFQRCVPSLHHRALDAEEEACLHSCAGKLIHSNHRLMAAYVQLMPALVQRRIADYEAASAVPGVAAEQPGVSPSGS
B5: C19ORF52 (TIMM29) (protein, UniProt Q9BSF4 32-260)
chain: GSWARALLRDYAEACRDASAEARARPGRAAVYVGLLGGAAACFTLAPSEGAFEEALLEASGTLLLLAPATRNRESEAFVQRLLWLRGRGRLRYVNLGLCSLVYEAPFDAQASLYQARCRYLQPRWTDFPGRVLDVGFVGRWWVLGAWMRDCDINDDEFLHLPAHLRVVGPQQLHSETNERLFDEKYKPVVLTDDQVDQALWEEQVLQKEKKDRLALSQAHSLVQAEAPR
B6: TIMM13 (protein, UniProt Q9Y5L4 1-95)
chain: MEGGFGSDFGGSGSGKLDPGLIMEQVKVQIAVANAQELLQRMTDKCFRKCIGKPGGSLDNSEQKCIAMCMDRYMDAWNTVSRAYNSRLQRERANM

Legend:
[1] = biological target: FLAG-tagged human NCBP2-AS2 (human) (UniProt Q69YL0); test: affinity purification with mass spectrometry
[2] = biological target: FLAG-tagged human NCBP2-AS2 (human) (UniProt Q69YL0); test: affinity purification with mass spectrometry; remark: listed apart in the source

Row | Molecule | binding [1] | binding [2]
1 | ATP5A1 (from UniProt P25705 44-553) | binds | –
2 | ATP5B (from UniProt P06576 48-529) | binds | –
3 | VDAC1 (from UniProt P21796 1-283) | binds | –
4 | FLAG-tagged human NCBP2-AS2 (from UniProt Q69YL0 1-99) | binds | –
5 | B1 | – | binds
6 | B2 | – | binds
7 | B3 | – | binds
8 | B4 | – | binds
9 | B5 | – | binds
10 | B6 | – | binds

Read-outs that look alike come from different tables or passages of the source. No constants are given. Whether binding was seen depends on the method and setting. In cells and extracts the contact can be indirect. Here binding means that the protein was enriched with, or labelled near, the bait; the list need not be complete.
